{"source": "paper PMC12608155", "about": "“Discovery of Potential Antileishmanial Compounds Through Phenotypic Screening of an Alkaloid Library” (Molecules, 2025)", "tested_on": "L. donovani IRFP axenic amastigotes", "experiment": "Primary single-concentration screening on axenic amastigotes, growth inhibition at 72 h", "assay_type": "cell-based", "settings": "Leishmania donovani", "note": "Like-named read-outs stand apart in the source and are kept apart here."}
{"compound": "CN[C@@H]1C[C@H]2O[C@@](C)([C@@H]1OC)n1c3ccccc3c3c4c(c5c6ccccc6n2c5c31)C(=O)NC4", "note": "[Staurosporine]", "values": [{"measurement": "inhibition at 1 µM", "setting": "read-out: Growth Inhibition (%) at 72h, 1 µM_Exp1", "value": 96.3, "unit": "%"}, {"measurement": "inhibition at 1 µM", "setting": "read-out: Growth Inhibition (%) at 72h, 1 µM_Exp2", "value": 98.7, "unit": "%"}, {"measurement": "inhibition at 10 µM", "setting": "read-out: Growth Inhibition (%) at 72h, 10 µM_Exp1", "value": 100, "unit": "%"}, {"measurement": "inhibition at 10 µM", "setting": "read-out: Growth Inhibition (%) at 72h, 10 µM_Exp2", "value": 99.8, "unit": "%"}]}
